Our source for the binding values is paper PMC5241803, “Structural basis for the recognition and degradation of host TRIM proteins by Salmonella effector SopA” (Nature Communications, 2017).

Amino acid sequences for entries named in this document (tags omitted).
UniProt Q8ZNR3: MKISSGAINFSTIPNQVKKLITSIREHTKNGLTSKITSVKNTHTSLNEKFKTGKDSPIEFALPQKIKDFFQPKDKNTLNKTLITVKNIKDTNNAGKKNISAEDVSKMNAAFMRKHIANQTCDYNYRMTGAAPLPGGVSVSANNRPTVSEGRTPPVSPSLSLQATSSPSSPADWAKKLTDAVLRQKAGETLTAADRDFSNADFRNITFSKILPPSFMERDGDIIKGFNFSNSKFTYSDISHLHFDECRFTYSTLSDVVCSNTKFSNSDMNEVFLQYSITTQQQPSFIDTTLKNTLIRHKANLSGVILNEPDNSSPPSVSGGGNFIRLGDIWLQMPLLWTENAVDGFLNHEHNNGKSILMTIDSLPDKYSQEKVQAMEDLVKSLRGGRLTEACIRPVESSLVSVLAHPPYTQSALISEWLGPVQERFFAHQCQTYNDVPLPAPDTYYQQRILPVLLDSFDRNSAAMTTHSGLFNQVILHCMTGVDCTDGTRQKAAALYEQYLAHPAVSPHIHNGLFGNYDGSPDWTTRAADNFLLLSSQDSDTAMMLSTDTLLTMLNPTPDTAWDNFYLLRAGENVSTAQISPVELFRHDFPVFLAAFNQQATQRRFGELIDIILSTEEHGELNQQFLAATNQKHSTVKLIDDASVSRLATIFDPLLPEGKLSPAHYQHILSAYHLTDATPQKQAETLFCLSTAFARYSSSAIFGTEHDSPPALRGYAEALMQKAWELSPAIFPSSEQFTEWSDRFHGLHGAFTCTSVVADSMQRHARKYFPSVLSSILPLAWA

No constants are given. Whether binding was seen depends on the method and setting. In cells and extracts the contact can be indirect. Some results given as binding are weak or reduced against the parent protein; the word gives no strength.

Assay [1] has as its target SopA–HA (S. Typhimurium SL1344) (UniProt Q8ZNR3). Nature of the assay: co-IP.
In assay [2] the target is GFP-SopA (S. Typhimurium SL1344) (UniProt Q8ZNR3). Nature of the assay: co-IP.

B1: MBP-TRIM56 (natural protein, human, UniProt Q9BRZ2 1-755, looked up)
chain: MVSHGSSPSLLEALSSDFLACKICLEQLRAPKTLPCLHTYCQDCLAQLADGGRVRCPECRETVPVPPEGVASFKTNFFVNGLLDLVKARACGDLRAGKPACALCPLVGGTSTGGPATARCLDCADDLCQACADGHRCTRQTHTHRVVDLVGYRAGWYDEEARERQAAQCPQHPGEALRFLCQPCSQLLCRECRLDPHLDHPCLPLAEAVRARRPGLEGLLAGVDNNLVELEAARRVEKEALARLREQAARVGTQVEEAAEGVLRALLAQKQEVLGQLRAHVEAAEEAARERLAELEGREQVARAAAAFARRVLSLGREAEILSLEGAIAQRLRQLQGCPWAPGPAPCLLPQLELHPGLLDKNCHLLRLSFEEQQPQKDGGKDGAGTQGGEESQSRREDEPKTERQGGVQPQAGDGAQTPKEEKAQTTREEGAQTLEEDRAQTPHEDGGPQPHRGGRPNKKKKFKGRLKSISREPSPALGPNLDGSGLLPRPIFYCSFPTRMPGDKRSPRITGLCPFGPREILVADEQNRALKRFSLNGDYKGTVPVPEGCSPCSVAALQSAVAFSASARLYLINPNGEVQWRRALSLSQASHAVAALPSGDRVAVSVAGHVEVYNMEGSLATRFIPGGKASRGLRALVFLTTSPQGHFVGSDWQQNSVVICDGLGQVVGEYKGPGLHGCQPGSVSVDKKGYIFLTLREVNKVVILDPKGSLLGDFLTAYHGLEKPRVTTMVDGRYLVVSLSNGTIHIFRVRSPDS
notes: TRIM56, human, full length, in pMAL-C2X; also called recombinant TRIM56; not shown: MBP, N-terminal, kept
In the case of B1, the binding entry in assay [1] and in assay [2] was “binds” each time.

B2: endogenous TRIM65 (protein, UniProt Q6PJ69 1-517)
chain: MAAQLLEEKLTCAICLGLYQDPVTLPCGHNFCGACIRDWWDRCGKACPECREPFPDGAELRRNVALSGVLEVVRAGPARDPGPDPGPGPDPAARCPRHGRPLELFCRTEGRCVCSVCTVRECRLHERALLDAERLKREAQLRASLEVTQQQATQAEGQLLELRKQSSQIQNSACILASWVSGKFSSLLQALEIQHTTALRSIEVAKTQALAQARDEEQRLRVHLEAVARHGCRIRELLEQVDEQTFLQESQLLQPPGPLGPLTPLQWDEDQQLGDLKQLLSRLCGLLLEEGSHPGAPAKPVDLAPVEAPGPLAPVPSTVCPLRRKLWQNYRNLTFDPVSANRHFYLSRQDQQVKHCRQSRGPGGPGSFELWQVQCAQSFQAGHHYWEVRASDHSVTLGVSYPQLPRCRLGPHTDNIGRGPCSWGLCVQEDSLQAWHNGEAQRLPGVSGRLLGMDLDLASGCLTFYSLEPQTQPLYTFHALFNQPLTPVFWLLEGRTLTLCHQPGAVFPLGPQEEVLS
For the molecule B2, the binding result in assay [2] is “binds”.
